According to PMC8593154:
Results are given in words; binding and its absence hold for the method and conditions named. Some results given as binding are weak or reduced against the parent protein; the word gives no strength.

By UniProt entry, the sequences of proteins in these tests, tags left out. Residues count along the entry.
UniProt P15116, residues 160-906: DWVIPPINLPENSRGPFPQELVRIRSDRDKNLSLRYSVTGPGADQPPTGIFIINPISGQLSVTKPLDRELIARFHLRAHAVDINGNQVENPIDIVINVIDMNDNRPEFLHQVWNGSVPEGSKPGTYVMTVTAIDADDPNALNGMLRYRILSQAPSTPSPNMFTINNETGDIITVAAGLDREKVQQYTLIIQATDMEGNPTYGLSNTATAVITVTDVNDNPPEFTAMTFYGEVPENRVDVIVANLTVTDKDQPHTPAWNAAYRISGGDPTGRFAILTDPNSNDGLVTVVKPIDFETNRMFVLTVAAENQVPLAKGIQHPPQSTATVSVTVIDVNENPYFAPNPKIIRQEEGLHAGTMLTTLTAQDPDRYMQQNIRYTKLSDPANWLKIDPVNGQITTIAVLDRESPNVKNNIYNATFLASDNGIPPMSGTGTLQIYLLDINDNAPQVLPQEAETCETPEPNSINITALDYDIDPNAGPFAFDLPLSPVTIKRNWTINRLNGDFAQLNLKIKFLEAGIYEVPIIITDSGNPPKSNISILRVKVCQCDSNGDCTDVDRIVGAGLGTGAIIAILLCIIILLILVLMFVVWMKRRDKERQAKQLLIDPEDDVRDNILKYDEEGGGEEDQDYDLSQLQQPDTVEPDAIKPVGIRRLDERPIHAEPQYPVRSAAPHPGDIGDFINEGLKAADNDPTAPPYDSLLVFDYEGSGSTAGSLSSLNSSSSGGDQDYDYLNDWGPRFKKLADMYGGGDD

Target: N-cadherin (UniProt P15116)
Experiment: cell aggregation assay; K562 cells individually expressing the indicated FRET constructs and N-cadherin, co-cultured

binding: binds
Substance: N-cadherin (from UniProt P15116 160-906) (receptor)
